Measured values from patent EP1068226B1, “LIPOPEPTIDES INDUCING T LYMPHOCYTIC CYTOTOXICITY BEARING AT LEAST ONE AUXILIARY T EPITOPE, AND USES FOR VACCINATION” (INSTITUT NATIONAL DE LA SANTE ET DE LA RECHERCHE MEDICALE …, priority 1998, dated 1999).
Part of at least one peptide drawing is inferred or uncertain, most often the ends. Residues, ends and D or L forms follow the SMILES beside them. *: point of attachment. Palmitoyl = CCCCCCCCCCCCCCCC(=O)*

Experiments:
[1] = system: cellules des ganglions lymphatiques des souris transgéniques de type A2/K^b; experiment: IFN-γ secretion (ELISA) by draining lymph node cells of immunised mice, in response to TT 830-843; format: in vivo; conditions: 200 µg in IFA, subcutaneous; day 11; culture with TT 830-843 (10 µg/ml), supernatant at 36 h; figure 3a
[2] = system: cellules T CD8^+ spécifiques de MART 27-35; experiment: Immunisation without adjuvant, ELISPOT IFN-γ for MART 27-35 specific CD8+ T cells; format: in vivo, souris; conditions: for réponse cellulaire cytotoxique CD8^+ spécifique de l'épitope MART 27-35: 200 µg, single subcutaneous injection without adjuvant, day 11, splenocytes, similar with lymph node cells, figure 4
[3] = system: cellules des ganglions drainants de souris transgéniques A2/Kb; experiment: Proliferation (tritiated thymidine) of draining lymph node cells of immunised mice, in response to TT 830-843; format: in vivo; conditions: 200 µg in IFA, subcutaneous; day 11; 3 days culture with TT 830-843 (10 µg/ml); figure 3b

Structure (SMILES)	sécrétion d'interféron-γ par les cellules des ganglions lymphatiques [1]	réponse cellulaire cytotoxique CD8^+ spécifique de l'épitope MART 27-35 [2]	prolifération lymphocytaire en réponse au peptide TT 830-843 [3]	réponse CTL ([2]; acétate salt, souris transgéniques exprimant HLA-A2, no immunisation adjuvant)
CCCCCCCCCCCCCCCC(=O)NCCCC[C@H](N)C(=O)NCC(=O)N[C@@H](CCCNC(=N)N)C(=O)N[C@@H](CCC(N)=O)C(=O)N[C@@H](Cc1ccc(O)cc1)C(=O)N[C@H](C(=O)N[C@@H](CCCCN)C(=O)N[C@@H](C)C(=O)N[C@@H](CC(N)=O)C(=O)N[C@@H](CO)C(=O)N[C@@H](CCCCN)C(=O)N[C@@H](Cc1ccccc1)C(=O)N[C@H](C(=O)NCC(=O)N[C@H](C(=O)N[C@H](C(=O)N[C@@H](CCC(=O)O)C(=O)N[C@@H](CCCNC(=N)N)C(=O)NCC(=O)N[C@@H](CCCNC(=N)N)C(=O)N[C@@H](C)C(=O)N[C@@H](C)C(=O)NCC(=O)N[C@H](C(=O)NCC(=O)N[C@H](C(=O)N[C@@H](CC(C)C)C(=O)N[C@H](C(=O)N[C@H](C(=O)O)C(C)C)[C@@H](C)O)[C@@H](C)CC)[C@@H](C)CC)[C@@H](C)O)[C@@H](C)CC)[C@@H](C)CC)[C@@H](C)CC [lipopeptide n°5] (H-K(Palmitoyl)GRQYIKANSKFIGITERGRAAGIGILTV-OH)	forte sécrétion d'interféron-γ	capables d'induire in vivo une réponse cellulaire cytotoxique CD8^+ spécifique	prolifération lymphocytaire importante	–
CCCCCCCCCCCCCCCC(=O)NCCCC[C@H](NC(=O)CCCCCCCCCCCCCCC)C(=O)NCC(=O)N[C@@H](CCCNC(=N)N)C(=O)N[C@@H](CCC(N)=O)C(=O)N[C@@H](Cc1ccc(O)cc1)C(=O)N[C@H](C(=O)N[C@@H](CCCCN)C(=O)N[C@@H](C)C(=O)N[C@@H](CC(N)=O)C(=O)N[C@@H](CO)C(=O)N[C@@H](CCCCN)C(=O)N[C@@H](Cc1ccccc1)C(=O)N[C@H](C(=O)NCC(=O)N[C@H](C(=O)N[C@H](C(=O)N[C@@H](CCC(=O)O)C(=O)N[C@@H](CCCNC(=N)N)C(=O)NCC(=O)N[C@@H](CCCNC(=N)N)C(=O)N[C@@H](C)C(=O)N[C@@H](C)C(=O)NCC(=O)N[C@H](C(=O)NCC(=O)N[C@H](C(=O)N[C@@H](CC(C)C)C(=O)N[C@H](C(=O)N[C@H](C(=O)O)C(C)C)[C@@H](C)O)[C@@H](C)CC)[C@@H](C)CC)[C@@H](C)O)[C@@H](C)CC)[C@@H](C)CC)[C@@H](C)CC [lipopeptide n° 3] (Palmitoyl-K(Palmitoyl)GRQYIKANSKFIGITERGRAAGIGILTV-OH)	forte sécrétion d'interféron-γ	capables d'induire in vivo une réponse cellulaire cytotoxique CD8^+ spécifique	prolifération lymphocytaire importante	capable d'induire une réponse CTL satisfaisante
